According to patent US5212286A (Scios Nova Inc., priority 1986, dated 1993):
Some peptides are written in HELM: one residue between dots, names in brackets for other building blocks, links after the first $. The same purity stands for every peptide and may come from a single statement.

Experiment: general procedure: Boc solid-phase peptide synthesis; chloromethylated polystyrene resin; p-Methylbenzhydrylamine (pMBHA) resin for amides; N,N'-dicyclohexylcarbodiimide
Conditions: whole synthesis, reversed phase HPLC, acetate salt

| Substance | final HPLC purity |
| --- | --- |
| PEPTIDE1{R.S.S.C.F.G.G.R.I.D.R.I.G.A.Q.S.G.L.G.C.N.S.F.R.Y}$PEPTIDE1,PEPTIDE1,4:R3-20:R3$$$V2.0 | minimum 97% purity |
| PEPTIDE1{R.S.S.C.F.G.G.R.M.D.R.I.G.A.Q.S.G.L.G.C.N.S.F.R.Y}$PEPTIDE1,PEPTIDE1,4:R3-20:R3$$$V2.0 | minimum 97% purity |
